Laboratory results reported in patent US9592226B2, “Solenopsin and derivatives, therapeutic compositions; and methods related thereto” (priority 2013, dated 2017).
Some results were stated once for a whole list of compounds, not compound by compound. Some ranges recur; such a range may be that of the whole group of compounds.

test system: A375 cells; test: Superoxide (ROS) by DHE fluorescence, A375 cells; assay type: cell-based, human; settings: 10 μM, 24 h
Protocol: Cells were treated for 24 h with 10 μM of (+)-solenopsin A ((+) Sol. A), (−)-solenopsin A ((−) Sol. A), and solenopsin analogs S11-S15. Cells were trypsined and incubated for 10 min in 10 μM dihydroethedium (DHE), followed by analysis with a FACScan flow cytometer. Data shown are an average of three experiments±s.d.
A375 or SVR cells were plated in 6 cm dishes. After cells had adhered to the plates, they were treated for 24 h with 10 μM DMSO solutions of (+)-solenopsin A, (−)-solenopsin A, or analogs (S11-S15) at which time the media was aspirated. Cells were washed with 2 mL PBS then treated with 0.05% trypsin/0.53 mM EDTA (Fisher) for 3 min at RT. Cells were collected and then pelleted at 600 g for 2 min. The supernatant was aspirated and the cells were suspended in 10 uM dihydroethidium (DHE) (Life Technologies) and incubated for 10 min in the dark at RT while shaking Following this incubation, cells were kept until counting on a Becton Dickinson FACScan flow cytometer. 10,000 cells were counted and analyzed by FlowJo 7.6.4. Mean values of DHE fluorescence intensity were compared.

SMILES	increase in superoxide levels (DHE fluorescence) compared to vehicle treated cells
CCCCCCCCCCCCCCCC1CCCC(C)N1 (stereo not drawn) [Compound S14, 2-Methyl-6-pentadecylpiperidine]	1.7-2.2 fold
CCCCCCCCCCC(O)C1CCCCN1 (stereo not drawn) [Compound S15, 1-(Piperidin-2-yl)undecan-1-ol]	1.7-2.2 fold
CCCCCCCCCCCC1CCCC(C)N1 (stereo not drawn) [Compound S12, 2-Methyl-6-undecylpiperidine]	1.7-2.2 fold
